Here are results for six substances from paper doi:10.1101/2020.01.07.896860.

Chains of the proteins cited; added tags and fusions are not shown. Lines headed by an entry give the natural chain unless they say otherwise; changes in a name come on top.
UniProt Q6IAA8: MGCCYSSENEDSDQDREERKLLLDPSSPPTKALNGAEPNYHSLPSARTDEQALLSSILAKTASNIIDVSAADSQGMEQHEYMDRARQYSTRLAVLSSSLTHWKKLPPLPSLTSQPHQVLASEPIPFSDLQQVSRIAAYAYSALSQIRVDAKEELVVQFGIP
UniProt P46414: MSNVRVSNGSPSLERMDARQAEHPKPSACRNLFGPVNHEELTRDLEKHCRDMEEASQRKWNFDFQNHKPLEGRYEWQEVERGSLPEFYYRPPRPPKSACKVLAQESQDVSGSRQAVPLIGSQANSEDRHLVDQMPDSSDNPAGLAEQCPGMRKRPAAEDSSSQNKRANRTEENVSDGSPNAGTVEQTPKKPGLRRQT
UniProt Q9CQ22: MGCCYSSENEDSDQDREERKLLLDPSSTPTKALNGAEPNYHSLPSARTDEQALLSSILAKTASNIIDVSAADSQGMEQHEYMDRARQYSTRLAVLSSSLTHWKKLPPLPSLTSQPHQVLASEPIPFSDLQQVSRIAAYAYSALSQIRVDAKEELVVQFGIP
UniProt P46527: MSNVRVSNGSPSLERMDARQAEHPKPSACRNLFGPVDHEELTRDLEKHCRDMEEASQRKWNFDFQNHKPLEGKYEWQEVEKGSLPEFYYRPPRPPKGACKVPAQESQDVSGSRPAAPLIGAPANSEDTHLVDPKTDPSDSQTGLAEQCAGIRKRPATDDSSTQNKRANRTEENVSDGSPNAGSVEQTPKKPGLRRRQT
UniProt O88653: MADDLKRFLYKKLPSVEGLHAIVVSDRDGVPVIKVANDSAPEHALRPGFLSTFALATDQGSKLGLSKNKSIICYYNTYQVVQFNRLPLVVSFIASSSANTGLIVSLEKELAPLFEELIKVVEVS
UniProt Q9JHS3: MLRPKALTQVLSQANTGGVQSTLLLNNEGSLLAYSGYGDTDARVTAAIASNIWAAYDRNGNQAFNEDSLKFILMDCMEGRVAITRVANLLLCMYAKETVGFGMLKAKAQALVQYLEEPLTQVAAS

These are yes or no findings as the source states them, for the method shown. Binding seen in cells or lysates may run through a third protein. Some binding calls cover weakened binding; strength is not graded here.

The target in assay [1] is LAMTOR1 (endogenous, U251N cells) (human (endogenous in U251N)) (UniProt Q6IAA8). The assay can be described thus: co-IP.
In assay [2] the target is p27 (endogenous, p27+/+ MEFs) (mouse (endogenous in MEFs)) (UniProt P46414). The assay can be described thus: co-IP.
The target of assay [3] is RagC (endogenous, MEFs) (mouse (endogenous in MEFs)) (UniProt Q99K70). The experiment in a line: co-IP.
Assay [4] has as its target p27 (endogenous, p27+/+ MEFs) (mouse (endogenous in MEFs)) (UniProt P46414). The experiment in a line: proximity ligation.
Assay [5] has as its target LAMTOR1 (endogenous, MEFs) (mouse (endogenous in MEFs)) (UniProt Q9CQ22). The assay can be described thus: proximity ligation.
For assay [6], the target named is tagged LAMTOR1 (Figure 4G) (UniProt Q6IAA8). The assay can be described thus: co-IP.

In the case of “p27 (endogenous, U251N cells) (from UniProt P46527 1-198)”, the binding result in assay [1] is given as “binds”.

Turning to “LAMTOR3 (endogenous, MEFs) (from UniProt O88653 1-124)”, the binding result in assay [2] was “no binding”.

On to “LAMTOR4 (endogenous, MEFs) (from UniProt Q8CF66 1-99)”, for which the binding result in assay [2], in assay [3] and in assay [4] was “binds” in each case.

With “p27 (endogenous, p27+/+ MEFs) (from UniProt P46414 1-197)”, the binding result in assay [5] is listed as “binds”.

On to p27^Kip1 (from UniProt P46527 1-198), for which, in assay [6], the binding result was “binds”.

Regarding “LAMTOR2 (endogenous, MEFs) (from UniProt Q9JHS3 1-125)”, in assay [2], the binding entry is given as “no binding”.
